Measured values from paper doi:10.1101/2021.06.01.446527.
These are yes or no findings as the source states them, for the method shown. Binding seen in cells or lysates may run through a third protein. Some results given as binding are weak or reduced against the parent protein; the word gives no strength. Where a sequence is shown, tags or fusion partners need not be part of it.

Chains of the proteins cited; added tags and fusions are not shown.
UniProt P52630: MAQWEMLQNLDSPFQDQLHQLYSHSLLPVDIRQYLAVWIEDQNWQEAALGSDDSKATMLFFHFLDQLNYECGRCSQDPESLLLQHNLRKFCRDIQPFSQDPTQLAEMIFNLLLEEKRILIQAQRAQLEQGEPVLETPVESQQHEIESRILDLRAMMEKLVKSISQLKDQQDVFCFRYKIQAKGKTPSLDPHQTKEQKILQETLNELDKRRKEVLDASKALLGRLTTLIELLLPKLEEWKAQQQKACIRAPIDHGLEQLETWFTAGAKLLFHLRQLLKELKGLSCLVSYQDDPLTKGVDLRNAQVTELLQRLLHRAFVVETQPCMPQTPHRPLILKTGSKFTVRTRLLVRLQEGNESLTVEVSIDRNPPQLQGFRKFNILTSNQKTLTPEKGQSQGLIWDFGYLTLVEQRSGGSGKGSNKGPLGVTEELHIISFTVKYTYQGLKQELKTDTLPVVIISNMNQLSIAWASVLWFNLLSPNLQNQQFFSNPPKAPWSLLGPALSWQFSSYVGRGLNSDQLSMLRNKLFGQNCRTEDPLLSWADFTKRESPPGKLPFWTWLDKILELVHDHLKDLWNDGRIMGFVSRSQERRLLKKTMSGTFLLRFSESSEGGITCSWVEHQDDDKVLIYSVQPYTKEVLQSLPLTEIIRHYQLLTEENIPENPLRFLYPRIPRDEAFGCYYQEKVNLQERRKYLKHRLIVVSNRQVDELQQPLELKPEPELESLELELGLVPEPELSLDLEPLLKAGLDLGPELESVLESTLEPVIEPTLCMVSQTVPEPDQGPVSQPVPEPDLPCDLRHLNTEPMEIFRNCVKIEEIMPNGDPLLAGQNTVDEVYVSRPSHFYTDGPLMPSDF

T1: V5-tagged IFNAR2 cytosolic domain (aa 265-515) (UniProt P48551)
T1 sequence: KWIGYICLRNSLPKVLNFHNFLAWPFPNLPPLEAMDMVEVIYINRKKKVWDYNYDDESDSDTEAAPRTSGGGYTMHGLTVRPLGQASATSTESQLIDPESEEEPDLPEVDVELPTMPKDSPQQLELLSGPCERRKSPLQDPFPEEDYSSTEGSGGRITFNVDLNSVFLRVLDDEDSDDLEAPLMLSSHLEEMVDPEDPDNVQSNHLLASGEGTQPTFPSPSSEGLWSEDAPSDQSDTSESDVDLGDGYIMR

B1: Flag-tagged wt USP18 (USP18.wt-3XFlag) (enzyme, UniProt Q9UMW8-1 1-372)
chain: MSKAFGLLRQICQSILAESSQSPADLEEKKEEDSNMKREQPRERPRAWDYPHGLVGLHNIGQTCCLNSLIQVFVMNVDFTRILKRITVPRGADEQRRSVPFQMLLLLEKMQDSRQKAVRPLELAYCLQKCNVPLFVQHDAAQLYLKLWNLIKDQITDVHLVERLQALYTIRVKDSLICVDCAMESSRNSSMLTLPLSLFDVDSKPLKTLEDALHCFFQPRELSSKSKCFCENCGKKTRGKQVLKLTHLPQTLTIHLMRFSIRNSQTRKICHSLYFPQSLDFSQILPMKRESCDAEEQSGGQYELFAVIAHVGMADSGHYCVYIRNAVDGKWFCFNDSNICLVSWEDIQCTYGNPNYHWQETAYLLVYMKMEC
B2: Flag-tagged USP18.I60N (USP18.I60N-3XFlag) (enzyme, UniProt Q9UMW8-1 1-372)
chain: MSKAFGLLRQICQSILAESSQSPADLEEKKEEDSNMKREQPRERPRAWDYPHGLVGLHNNGQTCCLNSLIQVFVMNVDFTRILKRITVPRGADEQRRSVPFQMLLLLEKMQDSRQKAVRPLELAYCLQKCNVPLFVQHDAAQLYLKLWNLIKDQITDVHLVERLQALYTIRVKDSLICVDCAMESSRNSSMLTLPLSLFDVDSKPLKTLEDALHCFFQPRELSSKSKCFCENCGKKTRGKQVLKLTHLPQTLTIHLMRFSIRNSQTRKICHSLYFPQSLDFSQILPMKRESCDAEEQSGGQYELFAVIAHVGMADSGHYCVYIRNAVDGKWFCFNDSNICLVSWEDIQCTYGNPNYHWQETAYLLVYMKMEC
B3: Flag-tagged catalytically inactive USP18.C64S (USP18.C64S-3XFlag) (enzyme, UniProt Q9UMW8-1 1-372)
chain: MSKAFGLLRQICQSILAESSQSPADLEEKKEEDSNMKREQPRERPRAWDYPHGLVGLHNIGQTSCLNSLIQVFVMNVDFTRILKRITVPRGADEQRRSVPFQMLLLLEKMQDSRQKAVRPLELAYCLQKCNVPLFVQHDAAQLYLKLWNLIKDQITDVHLVERLQALYTIRVKDSLICVDCAMESSRNSSMLTLPLSLFDVDSKPLKTLEDALHCFFQPRELSSKSKCFCENCGKKTRGKQVLKLTHLPQTLTIHLMRFSIRNSQTRKICHSLYFPQSLDFSQILPMKRESCDAEEQSGGQYELFAVIAHVGMADSGHYCVYIRNAVDGKWFCFNDSNICLVSWEDIQCTYGNPNYHWQETAYLLVYMKMEC

Molecular target: T1, V5-tagged IFNAR2 cytosolic domain (aa 265-515)
Test: co-IP

binding, binds:
Myc-tagged STAT2 (STAT2-Myc) (from UniProt P52630 1-851), B1, B2, B3
